Test results published in patent publication US20160331708A1 (priority 2014, published 2016).
Structures can show the parent of a compound that is named as a salt. At least one structure is not confirmed: it was looked up by name or label, or the drawing left a doubt.

System: Bacillus subtilis 168
Assay: Antibiotic MIC tests in microtiter plates
Conditions: for effect on MIC value when combined with anthranilic acid: anthranilic acid at around 2 mM, B. subtilis; for Effect: effect of anthranilic acid (2.2 mM) on MIC of the antibiotic against B. subtilis

| Compound | effect on MIC value when combined with anthranilic acid | Effect |
| --- | --- | --- |
| CCC[C@@H]1C[C@@H](C(=O)N[C@@H]([C@H]2O[C@H](SC)[C@H](O)[C@@H](O)[C@H]2O)[C@H](C)Cl)N(C)C1 [Clindamycin (HCl), Clindamycin] | decreased | Lower MIC |
| NC[C@H]1O[C@H](O[C@H]2[C@H](O)[C@@H](O[C@H]3O[C@H](CO)[C@@H](O)[C@H](N)[C@H]3O)[C@H](N)C[C@@H]2N)[C@H](O)[C@@H](O)[C@@H]1O [Kanamycin (sulfate), Kanamycin] | decreased | Lower MIC |
